Test results from publication PMC7804152, “Structural basis for the multi-activity factor Rad5 in replication stress tolerance”.
Numbering of substitutions follows the chain as printed. Weaker means in comparison with the reference protein, sequence or condition of that experiment. Where a protein sequence is shown, tags need not be part of it.

Legend:
[1] = biological target: T1, KlRad5 K1023E (Kluyveromyces lactis) (UniProt Q6CJM4); assay: fluorescence polarization; details: 50 mM NaCl; FP: 20 mM Tris pH 7.5, 50 mM (dsDNA, KlHIRAN) or 70 mM (ssDNA) NaCl, 2 mM MgCl2, 1 nM DNA, room temp; recombinant protein; residues 163-1114; label: 5'-FAM
T1 sequence (looked up): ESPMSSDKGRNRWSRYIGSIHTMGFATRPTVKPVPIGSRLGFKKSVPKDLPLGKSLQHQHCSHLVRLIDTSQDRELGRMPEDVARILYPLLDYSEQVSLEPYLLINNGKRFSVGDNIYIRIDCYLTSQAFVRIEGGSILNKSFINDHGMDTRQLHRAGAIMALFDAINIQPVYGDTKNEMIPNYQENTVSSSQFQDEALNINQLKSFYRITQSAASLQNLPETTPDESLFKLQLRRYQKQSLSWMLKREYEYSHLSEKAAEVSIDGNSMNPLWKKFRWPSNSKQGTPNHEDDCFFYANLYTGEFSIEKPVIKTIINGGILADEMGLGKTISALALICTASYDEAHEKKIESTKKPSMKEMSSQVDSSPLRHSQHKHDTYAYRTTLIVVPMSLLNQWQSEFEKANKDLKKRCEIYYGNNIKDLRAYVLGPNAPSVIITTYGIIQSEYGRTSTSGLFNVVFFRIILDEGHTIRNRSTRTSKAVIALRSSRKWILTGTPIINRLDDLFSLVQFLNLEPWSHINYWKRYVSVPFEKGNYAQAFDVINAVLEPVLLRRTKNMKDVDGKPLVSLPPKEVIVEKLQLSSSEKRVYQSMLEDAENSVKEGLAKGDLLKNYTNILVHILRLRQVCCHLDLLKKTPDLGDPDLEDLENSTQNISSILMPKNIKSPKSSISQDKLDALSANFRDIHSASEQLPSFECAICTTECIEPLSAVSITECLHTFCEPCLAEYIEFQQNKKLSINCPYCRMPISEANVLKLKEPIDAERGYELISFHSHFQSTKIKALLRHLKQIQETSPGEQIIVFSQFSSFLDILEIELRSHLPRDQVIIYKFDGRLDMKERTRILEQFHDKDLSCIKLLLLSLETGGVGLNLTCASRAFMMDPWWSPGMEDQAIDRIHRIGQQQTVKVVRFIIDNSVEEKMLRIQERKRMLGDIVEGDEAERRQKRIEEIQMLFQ

[2] = biological target: T2, KlRad5 R610E (Kluyveromyces lactis) (UniProt Q6CJM4); assay: fluorescence polarization; details: 50 mM NaCl; FP: 20 mM Tris pH 7.5, 50 mM (dsDNA, KlHIRAN) or 70 mM (ssDNA) NaCl, 2 mM MgCl2, 1 nM DNA, room temp; recombinant protein; residues 163-1114; label: 5'-FAM
T2 sequence (looked up): T1 sequence (looked up) with R448E, E861K

Does “ACCAGTGCCAGTGAT (double strand) [D2a/D2b dsDNA]” bind [1]?
Result: binds more weakly

Does “ACCAGTGCCAGTGAT (double strand) [D2a/D2b dsDNA]” bind [2]?
Result: binds more weakly
